The supplement of paper PMC3682954
Where a name gives a salt, the structure may show the parent alone. ± gives the standard deviation of the averaged measurements. Some of the results follow. Repeats are few or missing, and single values can be far off.

Test system: RAW 264.7
Assay: HMGB1-induced TNF-alpha production relative to HMGB1-stimulated control; higher = more TNF-alpha secretion (less inhibition)
Settings: stimulus: HMGB1 5 ug/ml, 18 h
[1] = compound concentration: 1 ug/ml

NC(N)=NOCC[C@H](N)C(=O)O [L-Canavanine sulfate]
HMGB1-induced TNF-alpha production (compound concentration: 3 uM): 110%

NC(N)=NOCC[C@H](N)C(=O)O
HMGB1-induced TNF-alpha production (compound concentration: 3 uM): 101%

NC(N)=NOCC[C@H](N)C(=O)O [L-Canavanine]
HMGB1-induced TNF-alpha production (compound concentration: 3 uM): 89.7%

N[C@@H](Cn1oc(=O)[nH]c1=O)C(=O)O [(+)-Quisqualic acid]
HMGB1-induced TNF-alpha production (compound concentration: 3 uM): 81.3%

C[C@]12CC[C@H]3[C@@H](CC[C@]4(O)C[C@@H](O)CC[C@]34C=O)[C@@]1(O)CC[C@@H]2C1=CC(=O)OC1 [Strophanthidin]
HMGB1-induced TNF-alpha production [1]: 78.6%

C#CCN(C)C(C)Cc1ccccc1 (stereo not given) [Deprenyl HCl]
HMGB1-induced TNF-alpha production (compound concentration: 3 uM): 90.2 ± 8%

C[N+]1(CCC(C(N)=O)(c2ccccc2)c2ccccc2)CCCCC1
HMGB1-induced TNF-alpha production (compound concentration: 3 uM): 103%

S=C(NC1CCCCC1)N1CCC(c2cnc[nH]2)CC1 [Thioperamide maleate]
HMGB1-induced TNF-alpha production (compound concentration: 3 uM): 105 ± 14%

O=C([O-])Cc1ccccc1.[Na+] [Sodium Phenylacetate]
HMGB1-induced TNF-alpha production (compound concentration: 3 uM): 137%

CC1=NCCc2c1[nH]c1cc(O)ccc21 [Harmalol]
HMGB1-induced TNF-alpha production [1]: 54.5%

CC1=NCCc2c1[nH]c1cc(O)ccc21 [Harmalol hydrochloride dihydrate]
HMGB1-induced TNF-alpha production (compound concentration: 3 uM): 111%

C=C[C@H]1CN2CC[C@H]1C[C@H]2[C@H](O)c1ccnc2ccccc12
HMGB1-induced TNF-alpha production (compound concentration: 3 uM): 120%

COc1ccc2c(c1)[C@]13CCCC[C@@H]1[C@H](C2)N(C)CC3
HMGB1-induced TNF-alpha production (compound concentration: 3 uM): 85.7%

COc1ccc2c(c1)[C@]13CCCC[C@@H]1[C@H](C2)N(C)CC3 [d-3-Methoxy-N-methylmorphinan hydrobromide]
HMGB1-induced TNF-alpha production (compound concentration: 3 uM): 83.6%

COc1ccc2c(c1)[C@]13CCCC[C@@H]1[C@H](C2)N(C)CC3 [Dextromethorphan]
HMGB1-induced TNF-alpha production (compound concentration: 3 uM): 95.1%

COc1ccc2c(c1)[C@]13CCCC[C@@H]1[C@H](C2)N(C)CC3 [Dextromethorphan hydrobromide monohydrate]
HMGB1-induced TNF-alpha production (compound concentration: 3 uM): 72.6 ± 13%

Cc1ccc(S(=O)(=O)N2CC3CC(C2)c2cccc(=O)n2C3)cc1 (stereo not given)
HMGB1-induced TNF-alpha production [1]: 71.1%

Oc1ccc(CC2NCCc3cc(O)c(O)cc32)cc1O (stereo not given) [Tetrahydropapaveroline hydrobromide]
HMGB1-induced TNF-alpha production [1]: 51.2%

O=C1C=CC(=O)c2c(O)cccc21
HMGB1-induced TNF-alpha production (compound concentration: 3 uM): 78.5%

Oc1cc2c(cc1O)[C@H]1c3ccccc3CN[C@@H]1CC2
HMGB1-induced TNF-alpha production (compound concentration: 3 uM): 112%

Clc1cnc(Oc2ccc(Oc3ncc(Cl)cc3Cl)cc2)c(Cl)c1
HMGB1-induced TNF-alpha production (compound concentration: 3 uM): 125%

CNCCc1ccc(O)c(O)c1 [N-Methyldopamine hydrochloride]
HMGB1-induced TNF-alpha production (compound concentration: 3 uM): 58.9%

CC(Cc1ccc(O)cc1)NCC(O)c1cc(O)cc(O)c1 (stereo not given)
HMGB1-induced TNF-alpha production (compound concentration: 3 uM): 60.9%

CC(Cc1ccc(O)cc1)NCC(O)c1cc(O)cc(O)c1 (stereo not given) [Fenoterol hydrobromide]
HMGB1-induced TNF-alpha production (compound concentration: 3 uM): 42.8 ± 17%

C=C1[C@@H]2CC[C@H]3[C@]4(C)C[C@H](O[C@@H]5O[C@H](CO)[C@@H](OS(=O)(=O)O)[C@H](OS(=O)(=O)O)[C@H]5OC(=O)CC(C)C)C[C@@H](C(=O)O)[C@H]4CC[C@]3(C2)[C@@H]1O [Atractyloside potassium salt]
HMGB1-induced TNF-alpha production (compound concentration: 3 uM): 103%

C=C[C@H]1CN2CC[C@H]1C[C@@H]2[C@@H](O)c1ccnc2ccccc12
HMGB1-induced TNF-alpha production (compound concentration: 3 uM): 97.9%

C=C[C@H]1CN2CC[C@H]1C[C@@H]2[C@@H](O)c1ccnc2ccccc12 [(+)-Cinchonine]
HMGB1-induced TNF-alpha production [1]: 47.3%

Cn1cnc(CCN)c1 [1-Methylhistamine dihydrochloride]
HMGB1-induced TNF-alpha production [1]: 89.4% | HMGB1-induced TNF-alpha production (compound concentration: 3 uM): 112%

C1CCc2nnnn2CC1
HMGB1-induced TNF-alpha production (compound concentration: 3 uM): 97.4%

C1CCc2nnnn2CC1 [Pentylenetetrazole]
HMGB1-induced TNF-alpha production (compound concentration: 3 uM): 115 ± 4.2%

OC[C@@H]1CCCN2CCCC[C@H]12 [Lupinine]
HMGB1-induced TNF-alpha production [1]: 67.7%

COC1=CC2C3Cc4ccc(OC)c(O)c4C2(CCN3C)CC1=O (stereo not given)
HMGB1-induced TNF-alpha production [1]: 58.1%

C=CC[C@]1(O)CC[C@H]2[C@@H]3CCC4=CC(=O)CCC4=C3C=C[C@@]21C
HMGB1-induced TNF-alpha production (compound concentration: 3 uM): 84.8%

CCCN1CCC[C@@H]2Cc3nc(N)ncc3C[C@H]21 [Quinelorane dihydrochloride]
HMGB1-induced TNF-alpha production (compound concentration: 3 uM): 98.7%

C[C@]12CC[C@@H](O)C[C@@H]1CC[C@@H]1[C@@H]2CC[C@]2(C)C(=O)CC[C@@H]12 [Androsterone]
HMGB1-induced TNF-alpha production (compound concentration: 3 uM): 74%

CC1=CC(=O)C2=C(C)C[C@H](O)[C@@H]3[C@H](OC(=O)[C@H]3C)[C@H]12 [Austricine]
HMGB1-induced TNF-alpha production [1]: 79.2%

CNCC(O)c1ccc(O)cc1 (racemic) [(±)-Synephrine]
HMGB1-induced TNF-alpha production (compound concentration: 3 uM): 98.8%

CNCC(O)c1ccc(O)cc1 (racemic) [(+,-)-Synephrine]
HMGB1-induced TNF-alpha production (compound concentration: 3 uM): 116%

CN(N=O)c1ccc(O)c(O)c1 [Me-3,4-dephostatin]
HMGB1-induced TNF-alpha production (compound concentration: 3 uM): 105%

CC1=CC(=O)c2c(O)cccc2C1=O [Plumbagin]
HMGB1-induced TNF-alpha production [1]: 57.2%

CC(Cc1ccc(OCC(=O)O)cc1)NCC(O)c1cccc(Cl)c1 (stereo not given)
HMGB1-induced TNF-alpha production (compound concentration: 3 uM): 60%

OC1CCCCC1N1CCC(c2ccccc2)CC1 (stereo not given)
HMGB1-induced TNF-alpha production (compound concentration: 3 uM): 87.7%

NC(=O)c1ccc(N)nc1
HMGB1-induced TNF-alpha production (compound concentration: 3 uM): 94.6%

N[C@@H](Cc1ccc(N(CCCl)CCCl)cc1)C(=O)O [Melphalan]
HMGB1-induced TNF-alpha production (compound concentration: 3 uM): 94.6 ± 11%

N[C@@H](Cc1ccc(N(CCCl)CCCl)cc1)C(=O)O
HMGB1-induced TNF-alpha production (compound concentration: 3 uM): 88.5 ± 5.1%

CC(C)=CCOc1c2occc2cc2ccc(=O)oc12 [Imperatorin]
HMGB1-induced TNF-alpha production (compound concentration: 3 uM): 84.1%

C=CCN1C[C@H](C)N([C@H](c2ccc(C(=O)N(CC)CC)cc2)c2cccc(OC)c2)C[C@H]1C
HMGB1-induced TNF-alpha production (compound concentration: 3 uM): 107%

O=[N+]([O-])O[C@@H]1CO[C@H]2[C@@H]1OC[C@@H]2O [Isosorbide mononitrate]
HMGB1-induced TNF-alpha production (compound concentration: 3 uM): 126%

O=[N+]([O-])O[C@@H]1CO[C@H]2[C@@H]1OC[C@@H]2O
HMGB1-induced TNF-alpha production (compound concentration: 3 uM): 85.8%

C[C@H](N)[C@H](O)c1ccc(O)c(O)c1
HMGB1-induced TNF-alpha production (compound concentration: 3 uM): 66.2%

C[C@H](N)[C@H](O)c1ccc(O)c(O)c1 [Levonordefrin]
HMGB1-induced TNF-alpha production (compound concentration: 3 uM): 44.5%

N=C(N)NN [Aminoguanidine hemisulfate]
HMGB1-induced TNF-alpha production (compound concentration: 3 uM): 91.5%

N=C(N)NN [Aminoguanidine hydrochloride]
HMGB1-induced TNF-alpha production (compound concentration: 3 uM): 88.9%

CC[C@@]1(O)C[C@H](O[C@H]2C[C@H](N(C)C)[C@H](O)[C@H](C)O2)c2c(cc3c(c2O)C(=O)c2c(O)cccc2C3=O)[C@H]1C(=O)OC
HMGB1-induced TNF-alpha production (compound concentration: 3 uM): 12.7%

CC(C)N(CCC(C(N)=O)(c1ccccc1)c1ccccn1)C(C)C (stereo not given) [Disopyramide phosphate]
HMGB1-induced TNF-alpha production (compound concentration: 3 uM): 78%

CC(C)N(CCC(C(N)=O)(c1ccccc1)c1ccccn1)C(C)C (stereo not given)
HMGB1-induced TNF-alpha production (compound concentration: 3 uM): 89.8%

CC(C)N(CCC(C(N)=O)(c1ccccc1)c1ccccn1)C(C)C (stereo not given) [Disopyramide]
HMGB1-induced TNF-alpha production (compound concentration: 3 uM): 84.1 ± 13%

O.O.O=c1cccc2n1CC1CC2CN(CCO)C1.[Cl][Cu][Cl] (stereo not given)
HMGB1-induced TNF-alpha production [1]: 88.2%

C[C@H](N)CN1CCc2ccc(Br)cc21 [VER-3323 hemifumarate salt]
HMGB1-induced TNF-alpha production (compound concentration: 3 uM): 111%

CN1[C@@H]2CC[C@H]1C[C@@H](OC(=O)[C@H](CO)c1ccccc1)C2 [L-Hyoscyamine]
HMGB1-induced TNF-alpha production (compound concentration: 3 uM): 76.5%

CN1[C@@H]2CC[C@H]1C[C@@H](OC(=O)[C@H](CO)c1ccccc1)C2 [Hyoscyamine (L)]
HMGB1-induced TNF-alpha production (compound concentration: 3 uM): 104%

CN1[C@@H]2CC[C@H]1C[C@@H](OC(=O)[C@H](CO)c1ccccc1)C2
HMGB1-induced TNF-alpha production (compound concentration: 3 uM): 100%

Cc1ccc(-c2nc3ccc(C)cn3c2CC(=O)N(C)C)cc1
HMGB1-induced TNF-alpha production (compound concentration: 3 uM): 108%

O=[N+]([O-])c1cc(O)c(O)c([N+](=O)[O-])c1 [3,5-Dinitrocatechol]
HMGB1-induced TNF-alpha production (compound concentration: 3 uM): 107%

CN[C@@H]1C[C@@H](c2ccc(Cl)c(Cl)c2)c2ccccc21 [Indatraline hydrochloride]
HMGB1-induced TNF-alpha production (compound concentration: 3 uM): 110%

C[C@H]1O[C@H](O[C@H]2[C@H](O)[C@@H](O)[C@@H](O)[C@H](O)[C@@H]2O)[C@@H](N)C[C@@H]1NC(=N)C(=O)O [Kasugamycin]
HMGB1-induced TNF-alpha production (compound concentration: 3 uM): 101%

O=C1CN=C(c2ccccc2Cl)c2cc([N+](=O)[O-])ccc2N1
HMGB1-induced TNF-alpha production (compound concentration: 3 uM): 80.6%

CC12CCC3C(CCC4=C(O)C(=O)CCC43C)C1CCC2=O (stereo not given) [4-Androsten-4-ol-3,17-dione]
HMGB1-induced TNF-alpha production (compound concentration: 3 uM): 96.5%

Cc1cc(O)ccc1Cl
HMGB1-induced TNF-alpha production (compound concentration: 3 uM): 86.8%

C[C@@H]1CC[C@@]2(OC1)O[C@H]1[C@@H](O)[C@H]3[C@@H]4CC[C@H]5C[C@@H](O[C@@H]6O[C@H](CO)[C@H](O[C@@H]7O[C@H](CO)[C@@H](O)[C@H](O[C@@H]8OC[C@@H](O)[C@H](O)[C@H]8O)[C@H]7O[C@@H]7O[C@H](CO)[C@H](O)[C@H](O[C@@H]8O[C@H](CO)[C@@H](O)[C@H](O)[C@H]8O)[C@H]7O)[C@H](O)[C@H]6O)[C@H](O)C[C@]5(C)[C@H]4CC[C@]3(C)[C@H]1[C@@H]2C [Digitonin]
HMGB1-induced TNF-alpha production [1]: 94%

C=C(C)[C@H]1CN[C@H](C(=O)O)[C@H]1CC(=O)O
HMGB1-induced TNF-alpha production (compound concentration: 3 uM): 81%

C=C(C)[C@H]1CN[C@H](C(=O)O)[C@H]1CC(=O)O [Kainic acid]
HMGB1-induced TNF-alpha production (compound concentration: 3 uM): 115%

c1ccc2c(N3CCNCC3)cccc2c1 [1-(1-Naphthyl)piperazine hydrochloride]
HMGB1-induced TNF-alpha production (compound concentration: 3 uM): 98.3%

CC[C@H]1CN2CC[C@H]1C[C@@H]2[C@@H](O)c1ccnc2ccc(OC)cc12
HMGB1-induced TNF-alpha production (compound concentration: 3 uM): 94.8%

CC[C@H]1CN2CC[C@H]1C[C@@H]2[C@@H](O)c1ccnc2ccc(OC)cc12 [Hydroquinidine]
HMGB1-induced TNF-alpha production [1]: 55.6%

CCCN(CCC)CCc1c[nH]c2ccc(C(N)=O)cc12 [N,N-Dipropyl-5-carboxamidotryptamine maleate]
HMGB1-induced TNF-alpha production (compound concentration: 3 uM): 89.1%

COc1ccc2c(c1)c(CCN1CCOCC1)c(C)n2C(=O)c1cccc(Cl)c1Cl
HMGB1-induced TNF-alpha production (compound concentration: 3 uM): 110%

COc1ccc(CN2CCNCC2)c(OC)c1OC
HMGB1-induced TNF-alpha production (compound concentration: 3 uM): 83.1%

COc1ccc(CN2CCNCC2)c(OC)c1OC [Trimetazidine dihydrochloride]
HMGB1-induced TNF-alpha production (compound concentration: 3 uM): 56.8%

C[C@]12CC[C@H]3[C@@H](CCC4=CC(=O)CC[C@@H]43)[C@@H]1CC[C@@H]2O [19-Nortestosterone]
HMGB1-induced TNF-alpha production (compound concentration: 3 uM): 89.5%

C[C@]12CC[C@H]3[C@@H](CCC4=CC(=O)CC[C@@H]43)[C@@H]1CC[C@@H]2O [Nandrolone]
HMGB1-induced TNF-alpha production (compound concentration: 3 uM): 102%

O=C(N[C@H]1CN2CCC1CC2)c1ccc(Cl)cc1
HMGB1-induced TNF-alpha production (compound concentration: 3 uM): 105%

O=[N+]([O-])c1ccc2nc(N3CCNCC3)ccc2c1 [Quipazine, 6-nitro-, maleate]
HMGB1-induced TNF-alpha production (compound concentration: 3 uM): 105%

C=C[C@H]1CN2CC[C@H]1C[C@H]2[C@H](OC(=O)OCC)c1ccnc2ccc(OC)cc12
HMGB1-induced TNF-alpha production (compound concentration: 3 uM): 87%
